Source: PubChem BioAssay AID1347426 (Functional Genomics Laboratory (NCATS/FGL), 2020)
Hit rate of the full screen: of about 31,000 sequences, about 1,400 (4.5%) were called active.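 How the source made its calls: active means median seed-adjusted z-score above 1 or below -1; inactive means the rest.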 The list shows a part of the results.

Assay: Novel Modifiers of Survival Motor Neuron (SMN) Protein: Gene Identification via Genome-wide siRNA Screen
Conditions: HEK293T SMN2-luciferase reporter, siRNA knockdown, 72 h; actives lie on both sides
Method in brief: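 Each of three siRNAs per gene is reverse-transfected (1 pmol) into reporter HEK293T cells whose luciferase output tracks SMN protein level. After 72 h culture, ONE-Glo luminescence is control-normalized, log10-transformed and MAD-standardized; Common Seed Analysis deprioritizes seed-driven hits.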

| Sequence | median seed-adjusted z-score |
| --- | --- |
| GGACAUGCACUAUUACCAATT against RRAGB | inactive: 0 |
| CAGCGAAUGUAACAGUACATT against FAT1 | inactive: -0.00397 |
| CCGCCCAAGUAGUAAAGAATT against ADCY3 | inactive: -0.294 |
| CUGAGUAACUGUGCCCGGATT against RXFP4 | inactive: -0.315 |
| GCUGAGUCUUUCACCAAUATT against CCNO | inactive: -0.594 |
| GCAUCAGGUUUGUCACCUATT against ASTL | inactive: 0.722 |
| GAACAAAUCUGCGAGAUCATT against DIRAS2 | active: -1.25 |
| CCUAUAGACGUGGAAAUAATT against PCDHGA7 | inactive: 0.705 |
| GAGAAUCACUCCAAUCGAATT against HIPK2 | inactive: 0.156 |
| CUGCAUCACCUGUAUCUAUTT against EGLN2 | inactive: -0.349 |
| GAACUGUCGUAAACGCAAATT against NFE2L3 | inactive: 0.118 |
| GCUUCAUCAGUAACAAUCATT against TMEM123 | inactive: 0.292 |
| GCAUAGAUCCUGGUUCCCATT against ZNF408 | inactive: 0.00381 |
| GGUCAUAGCCUACUGUCUATT against SLC32A1 | inactive: -0.251 |
| GGAUCAUUACAGAGGCAAATT against DNAH9 | inactive: 0.656 |
| CCAACAGGGAGGAAACACATT against GH1 | inactive: -0.394 |
| AGAUCCAUGUCCCAAUAUATT against GJB5 | inactive: 0.338 |
| CUACUACAGUACUUCCUGATT against RNF39 | inactive: 0.297 |
| CCUUCGCUGCUACACCCAATT against LHX1 | inactive: 0 |
| GCCUCACACCAGAAAUAUUTT against DLK2 | inactive: -0.695 |
| CGAGAAGUGUUAGCUCGAATT against RNF111 | inactive: -0.0687 |
| GAAUAGGCAAGGUUUUAUUTT against VAX1 | inactive: 0.937 |
| CACGUGUCCUGAAGACAAATT against CLIC2 | inactive: -0.0124 |

Part of the list above, set out differently:
Sequence	median seed-adjusted z-score
CCUAUAGACGUGGAAAUAATT against PCDHGA7	inactive: 0.705
GAGAAUCACUCCAAUCGAATT against HIPK2	inactive: 0.156
CCAACAGGGAGGAAACACATT against GH1	inactive: -0.394
AGAUCCAUGUCCCAAUAUATT against GJB5	inactive: 0.338
GAAUAGGCAAGGUUUUAUUTT against VAX1	inactive: 0.937

(further entries)

| Sequence | median seed-adjusted z-score |
| --- | --- |
| CCGUGAGGGAGUUUACUUUTT against GPHB5 | inactive: -0.533 |
| GGCAGACACUUACCGAAAATT against XRCC1 | inactive: 0.0431 |
| GCAGGACGGUUUGUUUUCATT against PTGES2 | inactive: -0.02 |
| AGGUCUCAGCCUAUCUCAATT against TMPRSS4 | inactive: -0.54 |
| GCUCAAUUGUCGAUCUUUATT against ERO1LB | inactive: 0.565 |
| CAGUCGUGCUAGUUCCUCATT against SNX9 | inactive: 0.684 |
| CCAACUCUUGUGCAACUCATT against BAP1 | inactive: -0.374 |
| GCGGUACAGUGGAAUCUUUTT against SLC26A5 | inactive: -0.252 |
| GAAGAGAUAUUUACACCUUTT against CD47 | inactive: 0.0241 |
| CUUAGUCAGUGUACCCGAATT against PCDHGB5 | inactive: 0.464 |
| GAAUCCAAUGAGUUUACUATT against INPP1 | inactive: -0.047 |
| GGUUAUGCUUUCUAAUCCATT against UBE2U | inactive: -0.0545 |
| GACUACGACUGGUUCUUCATT against CSGLCA-T | inactive: 0.146 |
| GCUCGAACCAGAAUGUCAATT against EEF2K | inactive: 0 |
| GGAUGAUGUUUAUCGUGCUTT against ZNF507 | inactive: -0.262 |
| GAAGAGAACUUCUGCCGUATT against MST1 | active: -1.47 |
| ACCGCUAUGUCUACAUGUUTT against FADS6 | inactive: -0.637 |
| GGUCUUCGGUCUAAACUCATT against ZNF83 | inactive: 0.118 |
| AGCUAGACAUCACACCCAATT against POU6F1 | inactive: 0.978 |
| GAGAACCAGUUAUCCAACATT against PIR | inactive: 0.169 |
| CGGUAUAAUCGGAAUCGGATT against MKI67IP | inactive: 0.426 |
| GCUGUUCACCGGCAUCGAATT against TSKS | inactive: -0.0409 |
| ACCCAGACCCUAUCUUUGATT against NOG | inactive: 0.328 |

| Sequence | median seed-adjusted z-score |
| --- | --- |
| ACCGGAUUAUUUUUCCAAATT against LRP10 | inactive: 0.109 |
| AACUCGCUGUUGUACCUGATT against CPSF1 | active: 3.29 |
| AAAGCAGUAUGUCAUUAAATT against ZNF146 | inactive: 0.23 |
| GGUUAUUUUGGGACAAAGATT against BPIL2 | inactive: -0.63 |
| CAAUUGGAAUAGUCAUCAATT against SLC10A5 | inactive: 0.539 |
| GGAACGAUACAAUAGUCAATT against PMS1 | inactive: 0.0538 |
| CAACGUACCCAUUCCGGAATT against PRKCA | inactive: -0.249 |
| GCUCGAUCCCUGCAGAUUATT against LCOR | inactive: -0.0435 |
| CAAGUACUUUCUCAAGAUUTT against FGF10 | inactive: 0 |
| GAGACGGUUUCCAAAUGAATT against HSPB9 | inactive: 0.262 |
| AGUGCAUGACGGAACAAUATT against PTGDS | inactive: 0.48 |
| GCCGAGUUCUGUUUCCUCUTT against COQ6 | inactive: -0.0116 |
| GAAGAACGCAUGAAACGAATT against KCNH1 | inactive: -0.0859 |
| GUUUGUAACAGAUAUCGAUTT against CDK6 | inactive: 0 |
| GCCCAGGACUCAGACAAGATT against CTDSP1 | inactive: 0.28 |
| GGAAGAAACGGAGACUCAATT against DPF1 | inactive: 0.144 |
| GGCUAAGCUAUGUCAAUAATT against MTMR9 | inactive: 0.133 |
| AGGUUCAGCUGACUGGAAATT against SDSL | inactive: 0 |
| AUAUGUACAUAUUCUCAUATT against THAP1 | inactive: 0.139 |
| CGUGAUUUCUUGGUGCAGATT against TBC1D9B | inactive: -0.906 |
| GCCCGAAUGACAGUCCUUATT against UBE2D4 | inactive: 0.232 |
| GCAGGUCUCGGGAGAAUGATT against SLC12A3 | inactive: -0.891 |
| GGAGUUACCGGUGCAGAUATT against FUT2 | inactive: -0.878 |
